Data taken from article PMC8216464.
No constants are given. Whether binding was seen depends on the method and setting. Some binding calls cover weakened binding; strength is not graded here. One block for each substance: values may come before it.

Protein sequences, listed by entry. Tags and fused reporters are not part of them. Lines headed by an entry give the natural chain unless they say otherwise; changes in a name come on top. Residues count along the entry.
UniProt Q9ULM6: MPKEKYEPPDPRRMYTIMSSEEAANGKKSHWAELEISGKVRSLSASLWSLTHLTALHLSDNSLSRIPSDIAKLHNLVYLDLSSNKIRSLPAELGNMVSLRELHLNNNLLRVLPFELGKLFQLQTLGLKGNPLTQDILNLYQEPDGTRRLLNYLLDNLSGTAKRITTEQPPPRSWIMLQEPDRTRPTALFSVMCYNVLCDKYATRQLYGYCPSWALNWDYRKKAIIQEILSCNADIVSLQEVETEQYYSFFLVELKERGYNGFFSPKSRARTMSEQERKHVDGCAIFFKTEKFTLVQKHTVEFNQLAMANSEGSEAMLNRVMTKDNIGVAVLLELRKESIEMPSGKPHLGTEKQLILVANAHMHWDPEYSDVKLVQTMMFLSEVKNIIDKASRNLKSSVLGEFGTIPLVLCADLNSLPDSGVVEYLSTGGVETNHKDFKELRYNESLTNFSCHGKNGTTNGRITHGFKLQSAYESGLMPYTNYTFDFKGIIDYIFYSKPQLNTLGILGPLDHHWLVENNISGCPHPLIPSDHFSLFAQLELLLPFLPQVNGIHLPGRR
human CCR4a ΔN (deletion of residues M1–K28): residues 29-557 of Q9ULM6
UniProt Q9UIV1: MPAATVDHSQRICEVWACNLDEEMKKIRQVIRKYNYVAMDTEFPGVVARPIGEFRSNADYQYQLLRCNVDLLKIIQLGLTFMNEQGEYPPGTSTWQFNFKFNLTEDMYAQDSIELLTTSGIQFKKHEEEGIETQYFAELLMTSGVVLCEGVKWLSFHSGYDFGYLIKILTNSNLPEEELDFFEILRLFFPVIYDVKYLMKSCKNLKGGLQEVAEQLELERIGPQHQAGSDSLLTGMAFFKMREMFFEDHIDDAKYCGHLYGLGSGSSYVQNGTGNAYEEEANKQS

What was measured:
[1] = biological target: human CCR4a D491A (active site mutant) (human) (UniProt Q9ULM6); assay: SEC + other: anion-exchange chromatography (co-elution); MBP-tagged CCR4 and CAF1 variants co-expressed in E. coli, isolated on amylose resin, tags cleaved; complex separated from excess CAF1 on Superdex 200 (10 mM HEPES pH 7.5, 300 mM NaCl, 2 mM DTT, 18°C), then Source 15Q gradient 75 to 200 mM NaCl, where CCR4 and CAF1 co-eluted as a sharp peak; both purified
[2] = biological target: human CCR4a (Hs CCR4a) (human) (UniProt Q9ULM6); assay: crystal structure; co-expressed and purified CCR4a-CAF1a complex; crystals from 100 mM MES (pH = 6.0), 100 mM MgCl2, 8% PEG 6000 at 18°C; 3.3 Å, space group C2; both purified
[3] = biological target: human CCR4a R87T (human) (UniProt Q9ULM6); assay: SEC + other: anion-exchange chromatography (co-elution); MBP-tagged CCR4 and CAF1 variants co-expressed in E. coli, isolated on amylose resin, tags cleaved; complex separated from excess CAF1 on Superdex 200 (10 mM HEPES pH 7.5, 300 mM NaCl, 2 mM DTT, 18°C), then Source 15Q gradient 75 to 200 mM NaCl, where CCR4 and CAF1 co-eluted as a sharp peak; both purified
[4] = biological target: human CCR4a R65E (human) (UniProt Q9ULM6); assay: as above
[5] = biological target: human CCR4a D491N (human) (UniProt Q9ULM6); assay: as above
[6] = biological target: human CCR4a ΔN (deletion of residues M1–K28) (human) (UniProt Q9ULM6); assay: as above
[7] = biological target: human CCR4a (Hs CCR4a) (human) (UniProt Q9ULM6); assay: as above
[8] = biological target: human CCR4a N481A (human) (UniProt Q9ULM6); assay: as above
[9] = biological target: human CCR4a N481Y (human) (UniProt Q9ULM6); assay: as above
[10] = biological target: human CCR4a N481T (human) (UniProt Q9ULM6); assay: as above

binding [1]: binds
Substance: human CAF1a S112A (from UniProt Q9UIV1 1-285) (enzyme)

binding [2]: binds
binding [3]: binds
binding [4]: binds
binding [5]: binds
binding [6]: binds
binding [1]: binds
Substance: human CAF1a (Hs CAF1a) (from UniProt Q9UIV1 1-285) (enzyme)

binding [7]: binds
Substance: human CAF1a ΔC (deletion of residues S264–S285) (from UniProt Q9UIV1 1-263) (domain or fragment)

binding [8]: binds
binding [7]: binds
binding [9]: binds
binding [10]: binds
binding [1]: binds
Substance: human CAF1a D40A E42A (active site mutant) (from UniProt Q9UIV1 1-285) (enzyme)
